Measurements: patent US5665515A, “Method for obtaining a printing plate according to the silver salt diffusion transfer process” (Agfa-Gevaert N.V., priority 1994, dated 1997)

Columns and labels:
[1] = printing endurance of DTR printing plate treated with stabilising liquid containing the mercapto-compound (offset press GTO 46); conditions: amount (mmol/l): C 2, 6 2.4, 2 1.5, 2/6 2.4/1.5, 3 0.9, 4 2.7; for printing endurance, fresh: fresh plate; for printing endurance, 7 days: plate stored 7 days
Method: (§1) Preparation of the silver halide emulsion coating solution.
(§2) A silver chlorobromide emulsion composed of 98.2 mole % of chloride and 1.8 mole % of bromide was prepared by the double jet precipitation method. The average silver halide grain size was 0.4 μm (diameter of a sphere with equivalent volume) and contained Rhodium ions as internal dopant. The emulsion was orthochromatically sensitized and stabilized by 1-phenyl-5-mercaptotetrazole and a compound of the following formula: [drawing 16]
(§3) The emulsion coating solution and base layer coating solution were simultaneously coated by means of the cascade coating technique to a polyethylene terephthalate support provided with a pack of two backing layers such that the base layer coating was coated directly to the side of the support opposite to the side containing said backing layers. The emulsion layer was coated such that the silver halide coverage expressed as AgNO3 was 1.5 g/m^2 and the gelatin content was 1.5 g/m^2. The emulsion layer further contained 0.15 g/m^2 of 1-phenyl-4-methyl-3-pyrazolidone and 0.25 g/m^2 of hydroquinone. The base layer was coated such that the amount of gelatin in the coated layer was 3 g/m^2.
(§4) The thus obtained element was dried and subjected to a temperature of 40° C. for 5 days and then the emulsion layer was overcoated with a layer containing PdS as physical development nuclei, hydroquinone at 0.4 g/m^2 and formaldehyde at 100 mg/m^2.
(§5) Imaging elements prepared as described above were image-wise exposed using a camera and were subsequently developed by guiding the imaging element through the above transfer developer in 20s, 13s or 5s at a temperature of 30° C. The obtained plates were subsequently stabilised using the above stabilising liquid.
The obtained printing plates were then mounted on an offset press GTO 46 running a K+E 125 ink and a fountain liquid containing 5% of G648 (commercially available from Agfa-Gevaert NV) and 15% of isopropanol.

[2] = ink acceptance of DTR printing plate treated with stabilising liquid containing the mercapto-compound (offset press GTO 46); conditions: number of copies disposed of before satisfactory print, amount (mmol/l): C 2, 6 2.4, 2 1.5, 2/6 2.4/1.5, 3 0.9, 4 2.7
Method: as §1, §2, §3, §4, §5
The obtained printing plates were then mounted on an offset press GTO 46 running a K+E 125 ink and a fountain liquid containing 5% of G648 (commercially available from Agfa-Gevaert NV) and 15% of isopropanol. The results obtained were as follows:
*the ink acceptance is evaluated as the number of copies that have to be
disposed of before a satisfactory print is obtained.

Row | Compound | printing endurance, fresh ([1]; developing time 5 s) | printing endurance, fresh ([1]; developing time 13 s) | printing endurance, 7 days ([1]; developing time 5 s) | printing endurance, 7 days ([1]; developing time 13 s) | ink accept. ([2]; developing time 5 s) | ink accept. ([2]; developing time 13 s)
1 | CCCCCCCCn1nnnc1S [compound 4] | > 10000 | > 10000 | > 10000 | > 10000 | < 25 copies | < 25 copies
2 | CCCCCCn1nnnc1S [compound 3] | > 10000 | > 10000 | > 10000 | > 10000 | < 25 copies | < 25 copies
3 | CCCCN(CCCC)C(=O)Cn1nnnc1S [compound 2] | > 10000 | > 10000 | > 10000 | > 10000 | < 25 copies | < 25 copies
4 | CCCCCCCc1nnc(S)o1 [mercaptocompound C, 2mercapto-5-n.heptyl oxa3,4-diazole, reference compound] | > 10000 | > 10000 | > 10000 | > 10000 | 25-50 copies | 25-50 copies
5 | Sc1nnnn1-c1ccccc1 [compound 6] | > 10000 | > 10000 | > 10000 | > 10000 | 25-35 copies | 25-35 copies
